Reference: PubChem BioAssay AID540256 (National Center for Advancing Translational Sciences (NCATS), 2011)
Hit rate of the full screen: of about 300,000 compounds, about 3,700 (1.2%) were called active. This list was built around the results that the source calls inconclusive (neither active nor inactive); the mix of calls is not that of the screen. The call rests on the fitted dose curve; tested in HEK293 cells. Potencies beside an inconclusive call are fits to weak or partial responses and may not hold up.
Potency means the concentration at half of the fitted maximal effect.

Assay: qHTS for Inhibitors of binding or entry into cells for Lassa Virus; further: nearly all actives have a fitted effect of over 50% in size
Details: Lassa virus pseudotype entry inhibition, cell reporter; series mostly up to 37.9 µM
For `Cc1ccccc1-n1nnnc1SCCCC(=O)c1ccc(F)cc1`, the Potency was inconclusive: 10 µM [inhibitor, partial curve, poor fit].
With `CCOc1ccccc1N1CCN(C(=O)CNC(=O)c2ccc(OC)c(OC)c2)CC1` the Potency was inconclusive: 35.5 µM [inhibitor, single point].
With `CCc1ccc(Cn2c(CNS(=O)(=O)c3ccc4c(c3)CCCC4)nc3cccnc32)cc1` the Potency was “inactive”.
With `COCCN1CCn2c(nc3cc(NC(=O)NC4CCCCC4)ccc32)C1` the Potency was “inactive”.
With `O=C(CN1CCCCC1)Nc1ccc(S(=O)(=O)NC2CCCCC2)cc1` the Potency was “inactive”.
For `COc1ccc2nc3cc(Cl)ccc3c(Nc3cc(C(C)C)c(O)cc3C)c2c1`, the Potency was inconclusive: 11.2 µM [inhibitor, partial curve, poor fit].
In the case of `Cc1oc2ncn(CC(C)C)c(=O)c2c1C(=O)NCCCN1CCCCC1C` (stereo not given), the Potency is reported as “inactive”.
With `COc1cccc(Cn2c(=O)n(CC3CCC(C(=O)N4CCOCC4)CC3)c(=O)c3sccc32)c1` (stereo not given) the Potency was inconclusive: 35.5 µM [inhibitor, single point].
With `Cc1nc(NC(=O)CCCC(=O)Nc2nc(C)c(C)s2)sc1C` the Potency was inconclusive: 0.13 µM [inhibitor, full curve, poor fit].
In the case of `CCn1c(NCc2cc(OC)ccc2OC)nc2ccccc21`, the Potency is reported as “inactive”.
In the case of `O=[N+]([O-])c1cc(-c2nc(-c3ccncc3)no2)ccc1Cl`, the Potency is reported as “inactive”.
With `CCNc1nc(SC(C)C(=O)OC)nc(N(C)C)n1` (stereo not given) the Potency was “inactive”.
With `O=C(CSCc1ccccc1)Nc1ccc(S(=O)(=O)Nc2ncccn2)cc1` the Potency was “inactive”.
In the case of `CC(C)Cn1c(N)c(C(=O)CSc2nccn2C)c(=O)n(C)c1=O`, the Potency is reported as inconclusive: 5.01 µM [inhibitor, single point].
In the case of `O=C(c1ccco1)N1CCN(C(=S)Nc2cc(F)cc(F)c2)CC1`, the Potency is reported as inconclusive: 1.41 µM [inhibitor, full curve, poor fit].
With `COc1ccc(C(=O)Nc2ccc3nc(N4CCCCC4)cc(C)c3c2)cc1OC` the Potency was inconclusive: 35.5 µM [inhibitor, partial curve, poor fit].
In the case of `COc1ccc(CCNC(=O)c2ccc(CSCc3ccc(C)cc3)o2)cc1OC`, the Potency is reported as inconclusive: 14.1 µM [inhibitor, single point].
For `Cc1occc1C(=O)N/N=C/C1=C(N2CCOCC2)C(=C\c2ccc(Cl)cc2Cl)/CC1`, the Potency was “inactive”.
In the case of `Cc1ccc(/C=N/NC(=O)c2cccc(S(=O)(=O)Nc3ccccc3Cl)c2)o1`, the Potency is reported as “inactive”.
For `COc1ccc(OC)c(S(=O)(=O)N(C)CC(=O)Nc2ccc3c(c2)OCO3)c1`, the Potency was “inactive”.
With `Fc1ccc(Nc2c(-c3c[nH]c4ccccc34)nc3ccccn23)cc1` the Potency was “inactive”.
For `CCN1C(=O)CC(NNC(=O)c2ccc(Cl)cc2)C1=O` (stereo not given), the Potency was “inactive”.
For `CCOC(=O)CSc1nnc(Cc2ccccc2)n1-c1ccc(C)cc1`, the Potency was inconclusive: 35.5 µM [activator, single point].
With `CCOc1ccc(Cc2c(Cl)nc(SC)nc2N(C)C)cc1` the Potency was inconclusive: 13 µM [inhibitor, partial curve, poor fit].
For `CCOc1ccc(S(=O)(=O)NCCc2csc3nc(-c4cccc(C)c4)nn23)cc1`, the Potency was “inactive”.
With `O=C(COc1ccc(Cl)cc1Cl)NC(=O)NC1CCCC1` the Potency was inconclusive: 1.26 µM [activator, full curve, poor fit].
In the case of `CCn1nnc(NC(=O)C(C)(c2ccccc2)c2ccccc2)n1`, the Potency is reported as inconclusive: 0.708 µM [inhibitor, single point].
With `Cc1ccccc1Cn1nnc(-c2ccc3c(c2)OCO3)n1` the Potency was “inactive”.
For `COc1ccccc1NS(=O)(=O)c1cc(NC(=O)Nc2ccc(Cl)cc2Cl)ccc1N1CCCCC1`, the Potency was inconclusive: 15.8 µM [inhibitor, partial curve, poor fit].
With `O=[N+]([O-])c1ccc(S(=O)(=O)CC(CN2CCOCC2)N2CCOCC2)cc1` (stereo not given) the Potency was inconclusive: 35.5 µM [inhibitor, single point].
For `O=c1[nH]c2ccc(Cl)cc2c(-c2ccccc2)c1SC(=S)N1CCCCC1`, the Potency was inconclusive: 35.5 µM [inhibitor, single point].
With `O=C(CSc1ncc2c(n1)-c1cc(Cl)ccc1N(Cc1ccccc1)S2(=O)=O)NCc1ccccc1` the Potency was “inactive”.
In the case of `O=C1CSC2(C(=O)N(Cc3c(F)cccc3Cl)c3ccccc32)N1c1ccc(F)c(F)c1` (stereo not given), the Potency is reported as “inactive”.
For `Cc1ccc(OCCSc2nc3ccccc3n2CC(=O)NC(C)C)cc1`, the Potency was inconclusive: 11.2 µM [activator, partial curve, poor fit].
With `O=C(CCCO)N/N=C/c1cc(Br)ccc1O` the Potency was inconclusive: 5.62 µM [inhibitor, single point].
With `O=C(O)CCCn1cc(NC(=O)COc2ccccc2F)cn1` the Potency was inconclusive: 0.891 µM [inhibitor, full curve, poor fit].
For `O=C(Nc1ccc(OC(F)(F)F)cc1)C(NS(=O)(=O)c1cccc2nsnc12)c1ccccc1` (stereo not given), the Potency was inconclusive: 8.91 µM [inhibitor, partial curve].
With `C/C(=N\NC(=O)c1nnn(-c2nonc2N)c1CN(C)c1ccccc1)c1ccccc1O` the Potency was inconclusive: 31.6 µM [inhibitor, single point].
For `CCc1nc(N[C@H](C(=O)O)C(C)C)c2oc3ccccc3c2n1`, the Potency was inconclusive: 8.91 µM [activator, partial curve, poor fit].
With `Cc1ccc(C)c(N2CCN(C(=O)c3cccn4c(=O)c5ccccc5nc34)CC2)c1` the Potency was “inactive”.
In the case of `CCn1c(=O)c(=O)[nH]c2cc(C(=O)N(C)Cc3ccc(OC)c(F)c3)ccc21`, the Potency is reported as “inactive”.
For `CN(C)c1cccc(C(=O)OCC(=O)Nc2nccs2)c1`, the Potency was “inactive”.
With `COc1ccc(C(=O)O/N=C(\N)c2ccccc2)c(OC)c1` the Potency was inconclusive: 1.84 µM [inhibitor, full curve, poor fit].
In the case of `Cc1ccccc1C(=O)NC1(C(F)(F)F)C(=O)Nc2c1c(=O)[nH]c(=O)n2CCc1ccccc1` (stereo not given), the Potency is reported as inconclusive: 25.1 µM [activator, single point].
With `CCOc1ncccc1C(=O)Nc1ccc2c(c1)OCCO2` the Potency was “inactive”.
With `CCOc1ccc2nc(NC(=O)Nc3cccs3)sc2c1` the Potency was inconclusive: 0.0731 µM [activator, full curve, poor fit].
With `O=C(CN1CCCCCC1)Nc1ccccc1C(=O)Nc1ccccc1` the Potency was “inactive”.
With `CCC(Sc1ccc2nnc(CCNS(=O)(=O)c3ccc(OC)cc3)n2n1)C(=O)OC` (stereo not given) the Potency was inconclusive: 9.2 µM [inhibitor, partial curve, poor fit].
For `COc1cc(NC(=O)NCCn2nnc3cc(S(=O)(=O)N(C)C)ccc32)cc(OC)c1OC`, the Potency was “inactive”.
In the case of `Cc1[nH]c2ccccc2c1/C=N/NC(=S)NCc1ccccc1`, the Potency is reported as inconclusive: 16.4 µM [inhibitor, partial curve, poor fit].
In the case of `Cc1ccc(Cn2nnc3c(=O)[nH]c(C4CCCN(S(=O)(=O)c5ccccc5)C4)nc32)cc1` (stereo not given), the Potency is reported as inconclusive: 5.8 µM [inhibitor, full curve].
In the case of `COc1cc(NS(=O)(=O)c2cc3c(cc2C)n(C)c(=O)c(=O)n3C)cc(OC)c1`, the Potency is reported as inconclusive: 6.31 µM [activator, single point].
In the case of `COc1cc(C(=O)OCC(=O)N2CCC(Cc3ccccc3)CC2)cc(OC)c1OC`, the Potency is reported as inconclusive: 0.398 µM [activator, partial curve, poor fit].
For `O=C(NCc1cccs1)C1CC(=O)N(C2CCCC2)C1` (stereo not given), the Potency was inconclusive: 0.103 µM [activator, full curve, poor fit].
In the case of `CN(CC(=O)Nc1ccc(Cl)c(S(=O)(=O)N(C)C)c1)Cc1ccccc1`, the Potency is reported as inconclusive: 35.5 µM [inhibitor, single point].
For `CCOC(=O)Nc1nc(-c2ccc(Cl)cc2Cl)cs1`, the Potency was inconclusive: 8.2 µM [inhibitor, partial curve].
With `COC(=O)c1c(NC(C)=O)sc(C)c1C` the Potency was “inactive”.
In the case of `COc1cccc(NC(=O)C(Cc2ccccc2)NC(=O)C2CCC(C)CC2)c1` (stereo not given), the Potency is reported as “inactive”.
In the case of `CCCSc1nsc(SCCC)c1C#N`, the Potency is reported as “inactive”.
For `COc1ccc2[nH]c(C(=O)N(C)c3ccc(F)cc3F)cc2c1`, the Potency was inconclusive: 12.6 µM [inhibitor, partial curve, poor fit].
In the case of `O=S(=O)(c1ccc(Cl)cc1)N1CCC(c2ccncc2)CC1`, the Potency is reported as inconclusive: 35.5 µM [inhibitor, single point].
With `O=C(N/C(=C\c1ccc(-c2ccccc2)o1)C(=O)N1CCOCC1)c1ccccc1` the Potency was inconclusive: 8.91 µM [inhibitor, partial curve, poor fit].
In the case of `CC1Sc2ccc(S(=O)(=O)CCC(=O)N3CCN(c4ccccc4)CC3)cc2NC1=O` (stereo not given), the Potency is reported as inconclusive: 11.2 µM [inhibitor, partial curve, poor fit].
For `Cc1ccc(NC(=O)c2cc(-c3ccco3)on2)cc1C`, the Potency was inconclusive: 5.17 µM [activator, full curve, poor fit].
For `CC(OC(=O)c1ccco1)C(=O)Nc1nc(-c2ccccc2)cs1` (stereo not given), the Potency was active: 10 µM.
In the case of `CC(C)Cn1c(-c2ccc(S(=O)(=O)N3CCCC3)cc2)csc1=Nc1ccccc1`, the Potency is reported as inconclusive: 7.08 µM [inhibitor, partial curve, poor fit].
In the case of `O=C1COc2ccc(C(=O)COC(=O)Cn3cnc4ccccc43)cc2N1`, the Potency is reported as inconclusive: 10 µM [activator, partial curve].
For `Cc1ccc(S(=O)(=O)N2CCC(C(=O)OCC(=O)N3CCC(C)CC3)CC2)cc1C`, the Potency was “inactive”.
With `O=C(C1CC(=O)N(C2CCCC2)C1)N1CCN(c2cccc(Cl)c2)CC1` (stereo not given) the Potency was “inactive”.
For `CC(=O)C1=C(C)OC(N)=C(C#N)C1c1cccc2ccccc12` (stereo not given), the Potency was inconclusive: 0.794 µM [inhibitor, partial curve, poor fit].
